Laboratory results: PubChem BioAssay AID1259308 (NCATS, 2017)

- Test: 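Genes whose loss raises luciferase production in HEK293 cells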 (primary screen)
- Cell system: human HEK293 embryonic kidney cells stably expressing firefly luciferase (HEK-CMV-Luc2-Hygro)
- Reagents: single siRNA against human genes, 0.8 pmol siRNA per well
- Time to read-out: 72 h
- Measured: 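Reporter luminescence and viable-cell signal on separate replicate plates, given as percent of non-targeting control and median/MAD z-scores, plus per-cell luciferase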
- Reading the numbers: total luciferase, z-score and total luciferase, % of control: higher = more reporter protein produced
- Call rule: 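Active when the median/MAD z-score for overall luciferase is greater than 3; a gene was taken forward for validation with new siRNAs if at least two of its three siRNAs passed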
- Calls: active = raised luciferase; inactive = no rise
The whole screen tested about 59,000 reagents; shown is a part drawn at random. About 1,510 of all reagents (2.6%) were called active. 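Calls use total luciferase alone and ignore viability, so some active siRNAs may act by altering cell number.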 The numbers tell different reagents against one gene apart. Not all columns of the deposit are shown.

gene knocked down | siRNA no. | total luciferase, z-score | total luciferase, % of control | Outcome
NDUFS3 (GeneID 4722) | 1 | -0.052 | 80.9 | inactive
NDUFS3 (GeneID 4722) | 2 | -0.245 | 77 | inactive
NDUFS3 (GeneID 4722) | 3 | 1.32 | 108 | inactive
RPS6KA5 (GeneID 9252) | 1 | -2.49 | 32.4 | inactive
RPS6KA5 (GeneID 9252) | 2 | -0.582 | 70.3 | inactive
RPS6KA5 (GeneID 9252) | 3 | 0.00878 | 82.1 | inactive
ABCF1 (GeneID 23) | 1 | 0.282 | 87.5 | inactive
ABCF1 (GeneID 23) | 2 | -0.0178 | 81.5 | inactive
ABCF1 (GeneID 23) | 3 | -0.601 | 69.9 | inactive
CDH22 (GeneID 64405) | 1 | -0.033 | 81.2 | inactive
CDH22 (GeneID 64405) | 2 | 0.767 | 97.1 | inactive
CDH22 (GeneID 64405) | 3 | 0.0852 | 83.6 | inactive

Ordered by “total luciferase, % of control” (lowest first): 3 of the entries above
gene knocked down | siRNA no. | total luciferase, z-score | total luciferase, % of control | Outcome
RPS6KA5 (GeneID 9252) | 1 | -2.49 | 32.4 | inactive
NDUFS3 (GeneID 4722) | 2 | -0.245 | 77 | inactive
NDUFS3 (GeneID 4722) | 3 | 1.32 | 108 | inactive

The list goes on.
gene knocked down | siRNA no. | total luciferase, z-score | total luciferase, % of control | Outcome
WASH5P (GeneID 375690) | 1 | 0.255 | 87 | inactive
WASH5P (GeneID 375690) | 2 | -0.15 | 78.9 | inactive
WASH5P (GeneID 375690) | 3 | 0.451 | 90.9 | inactive
COQ10B (GeneID 80219) | 1 | 2.29 | 127 | inactive
COQ10B (GeneID 80219) | 2 | -0.962 | 62.7 | inactive
COQ10B (GeneID 80219) | 3 | -0.516 | 71.6 | inactive
IFT46 (GeneID 56912) | 1 | -0.423 | 73.5 | inactive
IFT46 (GeneID 56912) | 2 | -1.79 | 46.3 | inactive
IFT46 (GeneID 56912) | 3 | -0.928 | 63.4 | inactive
LRRC73 (GeneID 221424) | 1 | 1.72 | 116 | inactive
LRRC73 (GeneID 221424) | 2 | 0.88 | 99.4 | inactive
LRRC73 (GeneID 221424) | 3 | -2.14 | 39.3 | inactive
